Reference: paper PMC9192689

Chains of the proteins cited; added tags and fusions are not shown.
UniProt P37198: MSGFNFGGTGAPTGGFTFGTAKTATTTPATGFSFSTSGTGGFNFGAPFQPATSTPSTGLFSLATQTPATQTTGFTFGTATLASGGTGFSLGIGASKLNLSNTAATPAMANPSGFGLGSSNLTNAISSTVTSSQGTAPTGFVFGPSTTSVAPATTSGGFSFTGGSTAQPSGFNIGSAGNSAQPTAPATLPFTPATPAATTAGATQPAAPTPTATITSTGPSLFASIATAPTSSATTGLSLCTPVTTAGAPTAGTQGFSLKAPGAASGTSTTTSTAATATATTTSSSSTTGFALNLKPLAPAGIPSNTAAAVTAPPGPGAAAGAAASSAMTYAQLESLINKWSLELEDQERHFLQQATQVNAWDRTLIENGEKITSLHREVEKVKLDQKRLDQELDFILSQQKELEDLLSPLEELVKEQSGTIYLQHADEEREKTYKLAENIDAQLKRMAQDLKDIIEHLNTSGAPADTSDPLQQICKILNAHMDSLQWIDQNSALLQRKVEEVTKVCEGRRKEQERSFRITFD

Molecular target: eGFP-TDP-43 (ΔNLS) (UniProt Q13148)
Test: co-IP; HEK293 cells co-transfected with mRuby-NUP62 and eGFP-TDP-43 (WT or ΔNLS) for 24 h; lysate incubated with GFP-Trap Magnetic Agarose beads 3 h at 4 °C; washed three times in 10 mM Tris/Cl pH 7.5, 150 mM NaCl, 0.5 mM EDTA; immunoblot for NUP62 and TDP-43

**Q.** Which binding does the source give for mRuby-NUP62 (from UniProt P37198 1-522) here?
**A.** binds

No constants are given. Whether binding was seen depends on the method and setting. In cells and extracts the contact can be indirect. A result given as binding can be weak or reduced; the word gives no strength.
